# Experimental data: the supplement of paper PMC12819154, “High-throughput peptide-centric local stability assay extends protein–ligand identification to membrane proteins, tissues and bacteria” (Nature Structural & Molecular Biology, 2025)
# Amino acid sequences for entries named in this document (tags omitted). A change or cut given only in a name is not applied to a line headed by its entry.
# UniProt Q61025: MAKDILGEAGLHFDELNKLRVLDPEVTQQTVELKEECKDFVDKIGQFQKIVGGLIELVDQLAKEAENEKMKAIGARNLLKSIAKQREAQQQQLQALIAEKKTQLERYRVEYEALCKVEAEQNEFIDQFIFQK
# UniProt Q60872, whole entry: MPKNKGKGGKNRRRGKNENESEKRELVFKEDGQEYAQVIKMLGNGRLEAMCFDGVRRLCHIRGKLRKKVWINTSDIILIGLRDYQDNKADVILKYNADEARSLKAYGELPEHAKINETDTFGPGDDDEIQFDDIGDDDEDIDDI
# UniProt Q5DW34: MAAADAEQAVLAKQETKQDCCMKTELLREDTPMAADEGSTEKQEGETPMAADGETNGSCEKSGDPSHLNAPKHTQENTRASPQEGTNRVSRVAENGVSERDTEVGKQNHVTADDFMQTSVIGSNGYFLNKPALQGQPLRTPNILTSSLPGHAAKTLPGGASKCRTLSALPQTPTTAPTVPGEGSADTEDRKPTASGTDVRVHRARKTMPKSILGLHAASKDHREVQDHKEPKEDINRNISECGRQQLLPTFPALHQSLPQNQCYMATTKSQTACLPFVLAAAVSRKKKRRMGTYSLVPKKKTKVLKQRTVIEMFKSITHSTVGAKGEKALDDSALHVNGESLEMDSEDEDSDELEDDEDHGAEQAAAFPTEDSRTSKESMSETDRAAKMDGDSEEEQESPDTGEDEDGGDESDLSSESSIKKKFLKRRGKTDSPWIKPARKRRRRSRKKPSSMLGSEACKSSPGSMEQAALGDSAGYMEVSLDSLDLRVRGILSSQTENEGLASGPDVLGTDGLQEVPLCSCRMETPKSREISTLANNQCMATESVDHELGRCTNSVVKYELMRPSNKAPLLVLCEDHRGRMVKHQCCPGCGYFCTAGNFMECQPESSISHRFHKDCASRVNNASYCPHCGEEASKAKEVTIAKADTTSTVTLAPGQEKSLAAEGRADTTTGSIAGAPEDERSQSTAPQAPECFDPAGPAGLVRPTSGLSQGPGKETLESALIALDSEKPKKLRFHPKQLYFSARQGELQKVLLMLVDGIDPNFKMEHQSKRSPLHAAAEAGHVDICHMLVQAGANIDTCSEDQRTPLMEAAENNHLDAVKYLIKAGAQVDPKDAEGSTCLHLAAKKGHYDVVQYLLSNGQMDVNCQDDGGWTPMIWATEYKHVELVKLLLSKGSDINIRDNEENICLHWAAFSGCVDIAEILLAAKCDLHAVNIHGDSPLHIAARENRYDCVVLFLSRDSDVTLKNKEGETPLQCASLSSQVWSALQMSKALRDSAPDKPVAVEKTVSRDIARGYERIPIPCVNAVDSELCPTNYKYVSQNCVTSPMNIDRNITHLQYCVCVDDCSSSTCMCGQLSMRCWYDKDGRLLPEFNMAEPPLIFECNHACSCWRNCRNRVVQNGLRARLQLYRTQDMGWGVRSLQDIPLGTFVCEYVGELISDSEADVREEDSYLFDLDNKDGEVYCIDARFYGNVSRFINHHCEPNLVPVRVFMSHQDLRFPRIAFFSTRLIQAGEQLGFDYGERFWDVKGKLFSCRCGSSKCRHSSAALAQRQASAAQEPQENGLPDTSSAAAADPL
# UniProt Q5RJH6: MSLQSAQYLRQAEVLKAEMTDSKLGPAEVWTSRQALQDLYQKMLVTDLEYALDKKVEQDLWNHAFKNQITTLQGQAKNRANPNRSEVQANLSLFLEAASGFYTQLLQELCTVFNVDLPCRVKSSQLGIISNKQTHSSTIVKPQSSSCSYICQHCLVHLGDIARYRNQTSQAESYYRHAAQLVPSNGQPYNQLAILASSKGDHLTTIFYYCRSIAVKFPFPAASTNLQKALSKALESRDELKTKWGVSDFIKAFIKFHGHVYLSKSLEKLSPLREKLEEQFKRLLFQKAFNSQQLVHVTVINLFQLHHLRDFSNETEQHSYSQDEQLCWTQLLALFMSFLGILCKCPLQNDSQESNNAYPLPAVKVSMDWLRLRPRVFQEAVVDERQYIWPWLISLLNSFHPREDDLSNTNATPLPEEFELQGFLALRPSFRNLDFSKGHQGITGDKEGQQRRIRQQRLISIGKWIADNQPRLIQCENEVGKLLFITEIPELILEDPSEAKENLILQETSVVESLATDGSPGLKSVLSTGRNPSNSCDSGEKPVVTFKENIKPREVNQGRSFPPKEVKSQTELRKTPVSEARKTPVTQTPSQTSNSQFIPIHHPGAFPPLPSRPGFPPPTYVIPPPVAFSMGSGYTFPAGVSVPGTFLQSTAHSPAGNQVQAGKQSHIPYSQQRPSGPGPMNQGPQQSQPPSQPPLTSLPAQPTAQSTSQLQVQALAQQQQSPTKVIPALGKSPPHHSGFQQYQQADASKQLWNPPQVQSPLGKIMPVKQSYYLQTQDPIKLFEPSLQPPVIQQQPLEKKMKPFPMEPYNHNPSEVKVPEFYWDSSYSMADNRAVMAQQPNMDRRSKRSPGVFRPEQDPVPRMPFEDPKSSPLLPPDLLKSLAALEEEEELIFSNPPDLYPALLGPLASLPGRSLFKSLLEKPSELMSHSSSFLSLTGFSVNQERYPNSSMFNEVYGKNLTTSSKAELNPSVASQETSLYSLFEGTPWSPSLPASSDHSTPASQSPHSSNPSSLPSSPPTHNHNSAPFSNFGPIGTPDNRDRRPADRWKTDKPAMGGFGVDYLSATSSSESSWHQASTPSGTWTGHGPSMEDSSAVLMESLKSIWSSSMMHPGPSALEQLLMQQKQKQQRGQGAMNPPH
# UniProt Q5SGK3: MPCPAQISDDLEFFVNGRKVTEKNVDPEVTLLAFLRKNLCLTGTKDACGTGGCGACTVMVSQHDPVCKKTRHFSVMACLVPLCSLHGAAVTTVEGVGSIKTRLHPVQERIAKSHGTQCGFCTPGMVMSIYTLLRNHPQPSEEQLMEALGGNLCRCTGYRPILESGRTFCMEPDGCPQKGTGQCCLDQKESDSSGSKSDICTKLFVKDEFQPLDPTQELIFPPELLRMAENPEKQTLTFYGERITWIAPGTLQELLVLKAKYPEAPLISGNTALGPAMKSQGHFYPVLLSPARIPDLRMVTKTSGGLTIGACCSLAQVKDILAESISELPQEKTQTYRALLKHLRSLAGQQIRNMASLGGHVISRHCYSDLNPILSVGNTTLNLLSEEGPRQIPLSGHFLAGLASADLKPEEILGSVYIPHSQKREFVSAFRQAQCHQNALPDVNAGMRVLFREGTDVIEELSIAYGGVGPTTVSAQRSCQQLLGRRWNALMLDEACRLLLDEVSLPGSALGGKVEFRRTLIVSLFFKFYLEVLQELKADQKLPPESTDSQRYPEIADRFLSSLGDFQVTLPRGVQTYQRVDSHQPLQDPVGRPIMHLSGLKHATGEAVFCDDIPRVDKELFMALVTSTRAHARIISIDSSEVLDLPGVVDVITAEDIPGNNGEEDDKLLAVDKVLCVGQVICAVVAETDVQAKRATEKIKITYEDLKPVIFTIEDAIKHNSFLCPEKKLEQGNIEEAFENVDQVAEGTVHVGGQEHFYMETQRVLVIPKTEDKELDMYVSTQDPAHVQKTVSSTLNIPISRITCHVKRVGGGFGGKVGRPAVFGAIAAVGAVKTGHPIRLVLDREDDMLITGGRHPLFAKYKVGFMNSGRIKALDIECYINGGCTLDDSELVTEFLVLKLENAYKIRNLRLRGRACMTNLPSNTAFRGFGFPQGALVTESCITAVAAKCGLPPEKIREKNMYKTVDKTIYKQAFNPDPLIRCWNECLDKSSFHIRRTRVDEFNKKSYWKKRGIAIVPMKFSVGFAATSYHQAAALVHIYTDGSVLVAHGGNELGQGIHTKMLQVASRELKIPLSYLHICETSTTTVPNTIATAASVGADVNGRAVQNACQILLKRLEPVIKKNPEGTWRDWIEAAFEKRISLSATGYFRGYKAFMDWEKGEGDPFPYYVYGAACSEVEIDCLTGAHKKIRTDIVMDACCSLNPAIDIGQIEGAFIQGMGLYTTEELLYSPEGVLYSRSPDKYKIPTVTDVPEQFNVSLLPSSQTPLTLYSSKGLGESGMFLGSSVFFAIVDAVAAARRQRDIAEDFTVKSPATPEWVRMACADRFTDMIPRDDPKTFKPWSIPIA
# The list shows a part of the results. Most values lie at the level of the controls, where differences are scatter.
# Compound: CN[C@@H]1C[C@H]2O[C@@](C)([C@@H]1OC)n1c3ccccc3c3c4c(c5c6ccccc6n2c5c31)C(=O)NC4 [staurosporine]
# Assay: log2 fold change of tryptic peptide abundance, ligand vs vehicle (limited proteolysis) (log2 ratio); higher = more trypsin-susceptible (destabilized)
# Conditions: ligand concentration: 20 uM; sample: mouse liver crude lysate; replicate design: treated separately
row,Target,log2 fold change
1,"UniProt Q61025 (peptide sequence: DILGEAGLHFDELNK, peptide start residue: 4)",0.071
2,"UniProt Q60872 (peptide sequence: DYQDNKADVILKYNADEAR, peptide start residue: 83)",-0.207
3,"UniProt Q5DW34 (peptide sequence: ASPQEGTNR, peptide start residue: 80)",-0.448
4,"UniProt Q5RJH6 (peptide sequence: NPSNSCDSGEKPVVTFK, peptide start residue: 531)",0.34
5,"UniProt Q5SGK3 (peptide sequence: NMASLGGHVISR, peptide start residue: 353)",-0.0373
